PubChem BioAssay AID720505 | Drosophila RNAi Screening Center, 2013

- Screen: 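Fly regulators or components of the CRAC channel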 (primary screen)
- Cells: Drosophila S2R+ cells
- Reagent: long dsRNA against Drosophila genes
- Conditions: thapsigargin (2 µM) in calcium-free buffer to empty internal stores, then 2 mM calcium added back
- Read-out: 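Fluo-4 signal in 384-well plates read on a FLIPR after thapsigargin (2 µM, calcium-free) store depletion and 2 mM calcium add-back; unnormalised mean endpoint per well; screen run twice, selected wells retested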
- Reading the numbers: calcium signal and retest calcium signal: higher = more calcium entry after store depletion
- Active means: 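Knock-downs counted as hits when calcium entry dropped relative to STIM1 positive and Rho1 negative controls present on each plate; roughly 1500 genes called, with reductions of differing size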
- Meaning of the calls: active = called as lowering calcium entry; inactive = not called
The screen tested about 20,000 reagents; below is a random part of those that have a named target and a result. Of all reagents, about 2,100 (10%) got an active call. 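Raw plate signals without normalisation; calls rest on control-based scores that were not deposited; replicate 2 separates called from uncalled poorly.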 The numbers tell different reagents against one gene apart. Names joined by + are all predicted targets of the reagent. Not given: the amount of reagent, the time to read-out.

target gene | reagent no. | calcium signal, replicate 1 | calcium signal, replicate 2 | retest calcium signal, replicate 1 | retest calcium signal, replicate 2 | call
CG42537 | 1 | 117 | 130 | – | – | inactive
jing | 1 | 169 | 162 | – | – | inactive
jing | 2 | 86.1 | 115 | – | – | inactive
jing | 3 | 195 | 104 | – | – | inactive
CG10909 | 1 | 54.4 | 207 | – | – | active
Prosalpha7 | 1 | 128 | 112 | – | – | active
GstO3 | 1 | 82.6 | 75.9 | – | – | inactive
fon | 1 | 101 | 109 | – | – | inactive
GC1 | 1 | 152 | 101 | – | – | inactive
CG10479 | 1 | 94.4 | 87.8 | – | – | inactive
Orc1 | 1 | 85.3 | 148 | – | – | inactive
CG18476 | 1 | 111 | 127 | – | – | inactive
CG45263 | 1 | 119 | 140 | – | – | inactive
CG45263 | 2 | 134 | 140 | – | – | inactive
CG45263 | 3 | 117 | 96.5 | – | – | inactive
CG45263 | 4 | 108 | 107 | – | – | inactive
AhcyL1 | 1 | 78 | 91.8 | – | – | inactive
CG5805 | 1 | 153 | 203 | – | – | inactive
CG32036 | 1 | 89 | 101 | – | – | inactive
CG6761 | 1 | 154 | 149 | – | – | inactive
CG7546 | 1 | 82.2 | 147 | 125 | 147 | inactive
CG7546 | 2 | 117 | 135 | – | – | inactive
CG14143 | 1 | 91.7 | 112 | – | – | inactive
Rpn1 | 1 | 55.8 | 84.8 | – | – | active
pic | 1 | 112 | 88.3 | – | – | inactive
Fcp1 | 1 | 209 | 89.8 | – | – | inactive
AOX2 | 1 | 122 | 145 | – | – | inactive
CG11674 | 1 | 84.9 | 82.9 | – | – | inactive
CG17982 | 1 | 180 | 115 | – | – | inactive
Dh44-R2 | 1 | 122 | 215 | – | – | inactive
Dh44-R2 | 2 | 135 | 208 | – | – | inactive
toy | 1 | 70.2 | 99.5 | – | – | active
Mvb12 | 1 | 106 | 129 | – | – | inactive
Rbf | 1 | 60.2 | 122 | – | – | active
CG12343 | 1 | 109 | 116 | – | – | inactive
CG15864 | 1 | 110 | 106 | – | – | inactive
CG8157 | 1 | 127 | 173 | – | – | inactive
CG8157 | 2 | 118 | 94.4 | – | – | inactive
kirre | 1 | 77.8 | 162 | – | – | inactive
shtd | 1 | 174 | 122 | – | – | inactive
link | 1 | 102 | 150 | – | – | inactive
CG15043 | 1 | 73.4 | 115 | – | – | inactive
PpD3 | 1 | 136 | 87.4 | – | – | inactive
mus201 + Chrac-14 | 1 | 172 | 122 | – | – | inactive
mus201 + Chrac-14 | 2 | 172 | 131 | – | – | inactive
Ccz1 | 1 | 84.1 | 73.1 | – | – | inactive
CG33630 | 1 | 73.5 | 93.3 | – | – | inactive
Obp47a | 1 | 172 | 127 | – | – | inactive
Amy-d + Amy-p | 1 | 173 | 89.6 | – | – | inactive
CG13857 | 1 | 192 | 145 | – | – | inactive
CR43670 + grp + CR43671 + 1 more | 1 | 85.4 | 124 | – | – | inactive
Hpr1 | 1 | 109 | 122 | – | – | inactive
Gr22a | 1 | 71.4 | 184 | – | – | inactive
Him | 1 | 97.1 | 137 | – | – | inactive
salr | 1 | 231 | 144 | – | – | inactive
Rdh | 1 | 104 | 79.6 | 92.4 | 88.9 | inactive
Adi1 | 1 | 96.9 | 84.2 | – | – | inactive
Adi1 | 2 | 129 | 97.6 | – | – | inactive
CG32281 | 1 | 100 | 148 | – | – | inactive
cup | 1 | 138 | 213 | – | – | inactive
dpr14 | 1 | 158 | 116 | – | – | inactive
CG12507 | 1 | 78.2 | 136 | – | – | inactive
CG7878 | 1 | 84.9 | 152 | – | – | inactive
mtSSB | 1 | 146 | 156 | – | – | inactive
Ir51a | 1 | 119 | 169 | – | – | inactive
CG17065 | 1 | 112 | 115 | – | – | inactive
His3.3B | 1 | 73.2 | 83.5 | – | – | inactive
His3.3B | 2 | 49.9 | 93.9 | – | – | inactive
CG7724 | 1 | 97.3 | 91.7 | – | – | inactive
CG15635 | 1 | 62.5 | 125 | 112 | 105 | active
CG15635 | 2 | 114 | 157 | – | – | inactive
Rai1 | 1 | 76 | 142 | – | – | inactive
CG3841 | 1 | 160 | 168 | – | – | inactive
CG12926 | 1 | 126 | 111 | 104 | 138 | inactive
CG12926 | 2 | 106 | 243 | – | – | inactive
CG6696 | 1 | 76.2 | 93.6 | – | – | inactive
CG31855 | 1 | 105 | 97.6 | – | – | inactive
fs(1)Yb | 1 | 99.5 | 147 | – | – | inactive
CG18273 | 1 | 65.2 | 105 | – | – | active
CG18273 | 2 | 93 | 147 | 64.5 | 75.3 | inactive
Spn77Ba | 1 | 115 | 91 | – | – | inactive
CG12025 | 1 | 108 | 120 | – | – | inactive
CG13078 | 1 | 59.3 | 235 | – | – | inactive

Single entries from above.
pic, calcium signal, replicate 2 = 88.3
Value of CG17982 in “calcium signal, replicate 2”: 115
Under “calcium signal, replicate 1”, cup reads 138
His3.3B #2, calcium signal, replicate 2: 93.9
His3.3B #1, calcium signal, replicate 2 → 83.5
Under “calcium signal, replicate 1”, Adi1 #2 shows 129
